These are yes or no findings as the source states them, for the method shown. Binding calls can cover weak binding; strength is not graded here.

This test deals with amylin receptors of rat nucleus accumbens membranes (rat). The test is described as follows: radioligand competition, rat nucleus accumbens membranes.

As for LSTCVLGRLSQELHRLQTYPRTNTGSNTY (Synthetic 29-residue peptide) [Compound 1], the binding result is listed as “binds”.

The record behind these values is patent publication US6936584B1, “Mixed amylin activity compounds” (Amylin Pharmaceuticals, Inc., priority 1998, dated 2005).
